Reference: the supplement of paper PMC10849652
The other results are listed elsewhere or left out.

Sequences of proteins named here, by UniProt entry; tags and fusion partners are left off. A change or cut given only in a name is not applied to a line headed by its entry.
UniProt Q9BPX5, whole entry, looked up: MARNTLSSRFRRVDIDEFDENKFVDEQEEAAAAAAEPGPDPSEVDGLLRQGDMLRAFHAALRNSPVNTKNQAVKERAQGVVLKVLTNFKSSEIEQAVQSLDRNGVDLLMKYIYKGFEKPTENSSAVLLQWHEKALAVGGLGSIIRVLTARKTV
UniProt P02647, whole entry, looked up: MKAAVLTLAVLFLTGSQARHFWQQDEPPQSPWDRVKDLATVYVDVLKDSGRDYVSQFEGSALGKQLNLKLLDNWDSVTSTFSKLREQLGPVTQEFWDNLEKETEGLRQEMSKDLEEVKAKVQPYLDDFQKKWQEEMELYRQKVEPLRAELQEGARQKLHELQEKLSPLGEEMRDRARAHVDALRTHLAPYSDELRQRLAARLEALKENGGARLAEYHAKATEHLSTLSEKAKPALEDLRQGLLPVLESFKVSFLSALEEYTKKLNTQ
UniProt P49407: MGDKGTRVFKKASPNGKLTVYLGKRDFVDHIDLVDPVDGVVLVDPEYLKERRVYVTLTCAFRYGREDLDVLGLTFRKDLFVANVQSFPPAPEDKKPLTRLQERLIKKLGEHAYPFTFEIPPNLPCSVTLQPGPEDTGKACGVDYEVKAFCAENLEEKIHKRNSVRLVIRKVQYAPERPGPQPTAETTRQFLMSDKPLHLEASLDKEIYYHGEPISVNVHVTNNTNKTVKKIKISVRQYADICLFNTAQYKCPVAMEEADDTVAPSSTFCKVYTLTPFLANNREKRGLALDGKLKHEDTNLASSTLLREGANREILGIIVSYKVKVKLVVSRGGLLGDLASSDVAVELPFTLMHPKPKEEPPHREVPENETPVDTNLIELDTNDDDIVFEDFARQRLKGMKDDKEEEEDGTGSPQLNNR
UniProt Q9NVT9: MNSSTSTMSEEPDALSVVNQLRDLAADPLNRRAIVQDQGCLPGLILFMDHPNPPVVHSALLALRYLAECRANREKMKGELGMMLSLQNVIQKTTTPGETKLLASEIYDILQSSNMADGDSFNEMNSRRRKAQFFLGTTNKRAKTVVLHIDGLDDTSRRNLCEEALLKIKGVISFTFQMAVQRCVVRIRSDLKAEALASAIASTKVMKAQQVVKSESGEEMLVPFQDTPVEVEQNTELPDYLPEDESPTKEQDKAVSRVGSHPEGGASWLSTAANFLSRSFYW
UniProt P53365: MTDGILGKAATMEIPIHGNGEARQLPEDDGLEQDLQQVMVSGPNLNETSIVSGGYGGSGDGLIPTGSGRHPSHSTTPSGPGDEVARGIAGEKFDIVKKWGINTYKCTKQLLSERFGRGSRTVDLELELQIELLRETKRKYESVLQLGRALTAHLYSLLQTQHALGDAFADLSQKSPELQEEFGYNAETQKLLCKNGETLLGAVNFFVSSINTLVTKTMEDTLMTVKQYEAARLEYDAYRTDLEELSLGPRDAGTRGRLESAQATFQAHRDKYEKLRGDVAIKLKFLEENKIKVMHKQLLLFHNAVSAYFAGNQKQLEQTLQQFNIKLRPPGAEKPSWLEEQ
UniProt P98171: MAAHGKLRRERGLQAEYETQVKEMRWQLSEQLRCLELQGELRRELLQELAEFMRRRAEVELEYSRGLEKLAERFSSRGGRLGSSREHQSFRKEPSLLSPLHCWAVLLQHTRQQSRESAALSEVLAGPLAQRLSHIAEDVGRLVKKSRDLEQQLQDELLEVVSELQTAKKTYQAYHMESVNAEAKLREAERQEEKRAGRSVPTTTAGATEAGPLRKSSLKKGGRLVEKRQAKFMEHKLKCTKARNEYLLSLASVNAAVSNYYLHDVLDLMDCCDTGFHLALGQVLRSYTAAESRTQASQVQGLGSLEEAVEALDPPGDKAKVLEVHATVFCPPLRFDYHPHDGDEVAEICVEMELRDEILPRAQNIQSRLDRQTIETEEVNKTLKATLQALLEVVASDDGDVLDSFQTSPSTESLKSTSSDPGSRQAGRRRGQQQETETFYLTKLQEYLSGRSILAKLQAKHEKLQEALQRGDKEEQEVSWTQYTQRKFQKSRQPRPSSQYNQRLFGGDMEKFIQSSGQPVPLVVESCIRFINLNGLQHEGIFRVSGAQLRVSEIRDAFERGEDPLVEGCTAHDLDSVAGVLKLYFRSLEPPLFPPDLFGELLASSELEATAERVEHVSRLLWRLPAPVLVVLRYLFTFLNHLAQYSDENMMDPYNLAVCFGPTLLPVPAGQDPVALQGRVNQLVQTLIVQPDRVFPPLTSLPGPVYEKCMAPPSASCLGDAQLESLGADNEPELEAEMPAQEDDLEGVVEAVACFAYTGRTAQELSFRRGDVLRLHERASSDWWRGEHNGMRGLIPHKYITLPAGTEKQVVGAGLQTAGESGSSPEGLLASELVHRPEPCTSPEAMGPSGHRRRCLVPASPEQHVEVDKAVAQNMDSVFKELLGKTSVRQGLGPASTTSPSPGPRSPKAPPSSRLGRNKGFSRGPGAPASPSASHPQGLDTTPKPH
UniProt Q9NVJ2: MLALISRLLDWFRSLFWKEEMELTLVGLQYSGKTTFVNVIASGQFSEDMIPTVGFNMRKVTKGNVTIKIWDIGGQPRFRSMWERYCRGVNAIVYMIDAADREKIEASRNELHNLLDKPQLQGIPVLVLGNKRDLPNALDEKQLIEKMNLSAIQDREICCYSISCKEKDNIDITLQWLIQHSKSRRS
UniProt P84085: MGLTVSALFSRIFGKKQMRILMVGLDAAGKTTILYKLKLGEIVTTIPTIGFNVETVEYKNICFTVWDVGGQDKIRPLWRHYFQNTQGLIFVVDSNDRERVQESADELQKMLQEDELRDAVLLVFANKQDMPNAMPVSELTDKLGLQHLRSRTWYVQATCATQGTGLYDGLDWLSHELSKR
UniProt P42331: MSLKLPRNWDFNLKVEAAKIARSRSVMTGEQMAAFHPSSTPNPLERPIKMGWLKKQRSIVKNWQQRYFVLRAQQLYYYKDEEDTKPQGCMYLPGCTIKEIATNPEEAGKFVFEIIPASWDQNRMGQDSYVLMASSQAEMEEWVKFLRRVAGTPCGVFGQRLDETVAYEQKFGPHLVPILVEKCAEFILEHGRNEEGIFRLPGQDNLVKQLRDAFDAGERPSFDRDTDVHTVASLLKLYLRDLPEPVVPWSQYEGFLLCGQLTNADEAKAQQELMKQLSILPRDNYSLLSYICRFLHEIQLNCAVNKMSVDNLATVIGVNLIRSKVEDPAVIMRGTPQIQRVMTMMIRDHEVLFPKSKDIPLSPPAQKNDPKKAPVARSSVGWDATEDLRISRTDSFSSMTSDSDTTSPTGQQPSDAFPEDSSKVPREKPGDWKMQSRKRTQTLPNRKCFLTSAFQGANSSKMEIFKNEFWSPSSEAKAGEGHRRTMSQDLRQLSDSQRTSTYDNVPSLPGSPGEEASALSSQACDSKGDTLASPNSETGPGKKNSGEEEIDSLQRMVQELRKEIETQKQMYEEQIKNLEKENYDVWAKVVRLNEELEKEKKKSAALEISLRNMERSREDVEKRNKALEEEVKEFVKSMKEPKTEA
UniProt Q9NRW3: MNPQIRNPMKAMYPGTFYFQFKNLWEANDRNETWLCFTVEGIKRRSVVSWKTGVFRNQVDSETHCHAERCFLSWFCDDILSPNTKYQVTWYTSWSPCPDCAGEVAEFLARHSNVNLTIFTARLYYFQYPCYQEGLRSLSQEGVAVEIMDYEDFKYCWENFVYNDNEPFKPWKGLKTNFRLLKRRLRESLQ
UniProt Q96P48: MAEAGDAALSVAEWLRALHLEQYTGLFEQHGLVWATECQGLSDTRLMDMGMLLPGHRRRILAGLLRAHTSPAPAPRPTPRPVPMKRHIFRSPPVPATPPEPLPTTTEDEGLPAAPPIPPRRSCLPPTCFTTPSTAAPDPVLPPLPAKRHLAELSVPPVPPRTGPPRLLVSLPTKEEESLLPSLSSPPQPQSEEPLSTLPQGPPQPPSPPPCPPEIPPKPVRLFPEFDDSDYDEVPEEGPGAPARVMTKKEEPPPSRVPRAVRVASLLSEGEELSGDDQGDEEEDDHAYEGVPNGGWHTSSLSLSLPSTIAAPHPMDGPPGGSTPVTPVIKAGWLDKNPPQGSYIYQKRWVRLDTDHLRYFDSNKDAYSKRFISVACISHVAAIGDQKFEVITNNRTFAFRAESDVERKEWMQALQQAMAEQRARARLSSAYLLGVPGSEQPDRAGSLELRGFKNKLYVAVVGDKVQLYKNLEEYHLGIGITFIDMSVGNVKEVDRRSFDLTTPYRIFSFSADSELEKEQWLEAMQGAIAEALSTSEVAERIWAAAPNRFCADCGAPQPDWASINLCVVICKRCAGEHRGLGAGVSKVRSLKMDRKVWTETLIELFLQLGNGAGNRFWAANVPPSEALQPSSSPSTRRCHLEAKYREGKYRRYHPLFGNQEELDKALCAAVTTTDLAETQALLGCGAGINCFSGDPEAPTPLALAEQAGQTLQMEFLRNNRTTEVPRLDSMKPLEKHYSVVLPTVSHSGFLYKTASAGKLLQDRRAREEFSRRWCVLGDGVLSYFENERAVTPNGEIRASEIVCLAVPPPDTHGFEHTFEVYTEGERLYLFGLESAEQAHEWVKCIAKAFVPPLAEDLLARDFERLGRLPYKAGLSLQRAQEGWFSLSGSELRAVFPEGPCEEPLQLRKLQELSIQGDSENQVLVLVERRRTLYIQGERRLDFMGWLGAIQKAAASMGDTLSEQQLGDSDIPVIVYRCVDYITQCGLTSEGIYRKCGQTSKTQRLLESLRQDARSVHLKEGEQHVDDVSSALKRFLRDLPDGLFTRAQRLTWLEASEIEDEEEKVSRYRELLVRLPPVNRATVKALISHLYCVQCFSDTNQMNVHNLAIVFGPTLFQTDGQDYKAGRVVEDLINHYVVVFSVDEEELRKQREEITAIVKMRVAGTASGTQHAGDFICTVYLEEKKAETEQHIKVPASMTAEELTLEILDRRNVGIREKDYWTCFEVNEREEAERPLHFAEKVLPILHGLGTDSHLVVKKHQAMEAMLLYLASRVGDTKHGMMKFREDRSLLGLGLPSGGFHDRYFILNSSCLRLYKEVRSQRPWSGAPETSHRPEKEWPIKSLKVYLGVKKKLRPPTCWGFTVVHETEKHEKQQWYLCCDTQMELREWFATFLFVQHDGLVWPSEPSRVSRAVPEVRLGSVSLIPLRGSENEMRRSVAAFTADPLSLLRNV
UniProt O14727: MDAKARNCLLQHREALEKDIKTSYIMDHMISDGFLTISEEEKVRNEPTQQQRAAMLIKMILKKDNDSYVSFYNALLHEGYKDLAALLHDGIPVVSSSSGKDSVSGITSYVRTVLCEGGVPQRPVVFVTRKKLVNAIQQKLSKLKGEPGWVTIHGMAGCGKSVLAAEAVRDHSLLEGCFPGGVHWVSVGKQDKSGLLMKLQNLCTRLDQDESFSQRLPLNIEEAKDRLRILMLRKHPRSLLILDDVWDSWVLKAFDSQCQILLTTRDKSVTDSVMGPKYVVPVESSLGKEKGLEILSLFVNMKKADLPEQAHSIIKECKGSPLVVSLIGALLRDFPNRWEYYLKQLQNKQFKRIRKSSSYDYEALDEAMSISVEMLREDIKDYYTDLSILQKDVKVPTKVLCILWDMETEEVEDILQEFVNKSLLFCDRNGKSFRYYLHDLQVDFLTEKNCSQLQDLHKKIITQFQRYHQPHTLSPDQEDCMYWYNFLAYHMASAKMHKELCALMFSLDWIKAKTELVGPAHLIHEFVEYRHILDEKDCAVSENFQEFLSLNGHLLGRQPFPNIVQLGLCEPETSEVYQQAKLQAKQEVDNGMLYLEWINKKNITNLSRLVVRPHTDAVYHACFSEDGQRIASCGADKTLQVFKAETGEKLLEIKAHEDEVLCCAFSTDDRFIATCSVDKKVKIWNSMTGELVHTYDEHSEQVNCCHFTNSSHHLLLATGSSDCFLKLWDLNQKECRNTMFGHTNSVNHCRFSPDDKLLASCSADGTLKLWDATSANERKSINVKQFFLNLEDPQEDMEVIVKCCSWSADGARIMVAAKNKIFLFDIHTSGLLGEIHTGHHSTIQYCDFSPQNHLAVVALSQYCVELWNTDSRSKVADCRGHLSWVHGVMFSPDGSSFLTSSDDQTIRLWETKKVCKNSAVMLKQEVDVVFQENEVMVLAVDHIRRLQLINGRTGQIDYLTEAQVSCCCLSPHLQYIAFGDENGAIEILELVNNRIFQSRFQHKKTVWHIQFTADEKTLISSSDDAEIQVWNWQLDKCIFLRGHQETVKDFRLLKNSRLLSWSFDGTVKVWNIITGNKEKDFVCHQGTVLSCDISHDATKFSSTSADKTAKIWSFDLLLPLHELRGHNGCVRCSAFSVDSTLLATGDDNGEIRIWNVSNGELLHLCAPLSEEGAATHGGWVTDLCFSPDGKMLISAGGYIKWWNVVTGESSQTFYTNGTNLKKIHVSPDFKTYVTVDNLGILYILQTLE
UniProt Q9BUR5: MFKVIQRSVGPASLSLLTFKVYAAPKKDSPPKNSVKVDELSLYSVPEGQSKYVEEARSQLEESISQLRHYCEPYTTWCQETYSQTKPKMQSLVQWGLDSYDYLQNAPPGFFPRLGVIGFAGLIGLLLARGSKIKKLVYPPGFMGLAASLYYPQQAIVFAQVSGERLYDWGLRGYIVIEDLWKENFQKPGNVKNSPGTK

What was measured:
Test in all cases: log2 fold change, soluble protein after heating vs DMSO (PISA); higher = thermal stabilisation; K562 lysate, 10 uM; active = over 0.2 and 3.5 SD of the protein, either way, in both replicates (recomputed)
nilotinib = compound: Cc1cn(-c2cc(NC(=O)c3ccc(C)c(Nc4nccc(-c5cccnc5)n4)c3)cc(C(F)(F)F)c2)cn1 [nilotinib]
Outline: (§1)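 Dounce homogenisation of K562 pellets in PBS pH 7.4 with 1 mM MgCl2 produced a crude extract, used at 1 mg/mL protein. Exposure to 10 μM compound lasted 30 min, and aliquots were then heated for 3 min across 48°C-58°C, pooled and brought to 0.5% NP-40 at 4°C. The supernatant after 21,000xg for 90 min was quantified by TMTpro 16plex LC-MS/MS with channel sums equalised. Duplicate values are given as log-two fold change in thermal stability relative to solvent controls.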

[1] = compound: Cc1nc(Nc2n[nH]c3c2CN(C(=O)N[C@H](CN(C)C)c2ccccc2)C3(C)C)c2sccc2n1
Outline: as §1

dasatinib = compound: Cc1nc(Nc2ncc(C(=O)Nc3c(C)cccc3Cl)s2)cc(N2CCN(CCO)CC2)n1 [dasatinib]
Outline: as §1

[2] = compound: Cc1ncc(-c2ccnc(Nc3ccc(S(C)(=O)=O)cc3)n2)n1C(C)C
Outline: as §1

[3] = compound: Cn1cc(-c2ccc3c(c2)CCN3C(=O)Cc2cccc(C(F)(F)F)c2)c2c(N)ncnc21
Outline: as §1

quisinostat = compound: Cn1cc(CNCC2CCN(c3ncc(C(=O)NO)cn3)CC2)c2ccccc21 [quisinostat]
Outline: as §1

tipifarnib = compound: Cn1cncc1[C@@](N)(c1ccc(Cl)cc1)c1ccc2c(c1)c(-c1cccc(Cl)c1)cc(=O)n2C [tipifarnib]
Outline: as §1

[4] = compound: NC(=O)Nc1cc(-c2cccc(F)c2)sc1C(=O)N[C@H]1CCCNC1
Outline: as §1

[5] = compound: NC(=O)c1cnc(N[C@@H]2CCCC[C@@H]2N)nc1Nc1cccc(-n2nccn2)c1
Outline: as §1

[6] = compound: NC1(c2ccc(-c3nc4ccn5c(=O)[nH]nc5c4cc3-c3ccccc3)cc2)CCC1
Outline: as §1

[7] = compound: NCC(=O)Nc1ccc(-n2nc(C(F)(F)F)cc2-c2ccc3c(ccc4ccccc43)c2)cc1
Outline: as §1

vorinostat = compound: O=C(CCCCCCC(=O)Nc1ccccc1)NO [vorinostat]
Outline: as §1

silmitasertib = compound: O=C(O)c1ccc2c(c1)nc(Nc1cccc(Cl)c1)c1ccncc12 [silmitasertib]
Outline: as §1

[8] = compound: O=C1NC(=O)C(c2cnc3ccccn23)=C1c1cn2c3c(cc(F)cc13)CN(C(=O)N1CCCCC1)CC2
Outline: as §1

entospletinib = compound: c1cn2cc(-c3ccc4cn[nH]c4c3)nc(Nc3ccc(N4CCOCC4)cc3)c2n1 [entospletinib]
Outline: as §1

Measured: log2 fold change

ARPC5L (UniProt Q9BPX5)
inactive: nilotinib -0.043 | [1] 0.018 | dasatinib -0.03 | [2] -0.006 | [3] -0.026 | quisinostat -0.041 | tipifarnib -0.057 | [4] -0.037 | [5] 0.009 | [6] -0.027 | [7] 0.008 | vorinostat 0.113 | silmitasertib -0.004 | [8] -0.029 | entospletinib -0.008

APOA1 (UniProt P02647)
inactive: nilotinib 0.041 | [1] 0.052 | dasatinib -0.021 | [2] 0.091 | [3] -0.06 | quisinostat -0.084 | tipifarnib -0.125 | [4] 0.021 | [5] 0.026 | [6] 0.051 | [7] -0.02 | vorinostat 0.002 | silmitasertib -0.082 | [8] -0.155 | entospletinib 0.094

ARRB1 isoform 2 (UniProt P49407)
inactive: nilotinib 0.014 | [1] 0.054 | dasatinib -0.09 | [2] 0 | [3] 0.037 | quisinostat 0.058 | tipifarnib 0.084 | [4] 0.196 | [5] -0.011 | [6] 0.004 | [7] 0.011 | vorinostat -0.004 | silmitasertib -0.031 | [8] 0.194 | entospletinib 0.232

ARMC1 (UniProt Q9NVT9)
inactive: nilotinib -0.001 | [1] 0.006 | dasatinib -0.018 | [2] -0.001 | [3] -0.01 | quisinostat -0.046 | tipifarnib 0.02 | [4] 0.031 | [5] 0.02 | [6] -0.006 | [7] 0.036 | vorinostat -0.139 | silmitasertib 0.017 | [8] 0.007 | entospletinib -0.047

ARFIP2 (UniProt P53365)
inactive: nilotinib 0.008 | [1] 0.02 | dasatinib -0.052 | [2] -0.003 | [3] -0.006 | quisinostat -0.085 | tipifarnib 0.03 | [4] 0.046 | [5] 0.025 | [6] 0.016 | [7] 0.014 | vorinostat -0.062 | silmitasertib -0.031 | [8] -0.043 | entospletinib 0.032

ARHGAP4 isoform 2 (UniProt P98171)
inactive: nilotinib -0.004 | [1] 0.001 | dasatinib -0.012 | [2] 0.026 | [3] 0.065 | quisinostat -0.028 | tipifarnib -0.007 | [4] 0.06 | [5] -0.025 | [6] -0.011 | [7] 0.005 | vorinostat -0.15 | silmitasertib 0.011 | [8] 0.045 | entospletinib 0.001

API5 isoform 2 (UniProt Q9BZZ5)
inactive: nilotinib -0.013 | [1] -0.02 | dasatinib 0.068 | [2] -0.038 | [3] -0.002 | quisinostat 0.002 | tipifarnib -0.013 | [4] -0.019 | [5] 0.016 | [6] -0.101 | [7] 0.042 | vorinostat 0.108 | silmitasertib 0.014 | [8] 0.028 | entospletinib -0.053

Reprinted from the listing (2 entries):
ARHGAP4 isoform 2 (UniProt P98171)
inactive: nilotinib -0.004 | [1] 0.001 | dasatinib -0.012 | [2] 0.026 | [3] 0.065 | quisinostat -0.028 | tipifarnib -0.007 | [4] 0.06 | [5] -0.025 | [6] -0.011 | [7] 0.005 | vorinostat -0.15 | silmitasertib 0.011 | [8] 0.045 | entospletinib 0.001

API5 isoform 2 (UniProt Q9BZZ5)
inactive: nilotinib -0.013 | [1] -0.02 | dasatinib 0.068 | [2] -0.038 | [3] -0.002 | quisinostat 0.002 | tipifarnib -0.013 | [4] -0.019 | [5] 0.016 | [6] -0.101 | [7] 0.042 | vorinostat 0.108 | silmitasertib 0.014 | [8] 0.028 | entospletinib -0.053

Further entries.

ARL8B (UniProt Q9NVJ2)
inactive: nilotinib 0.014 | [1] -0.005 | dasatinib 0.001 | [2] -0.01 | [3] -0.015 | quisinostat -0.019 | tipifarnib -0.033 | [4] -0.011 | [5] -0.021 | [6] -0.023 | [7] -0.001 | vorinostat 0.102 | silmitasertib 0.023 | [8] -0.014 | entospletinib -0.004

ARMT1 (UniProt Q9H993)
inactive: nilotinib -0.019 | [1] -0.016 | dasatinib -0.083 | [2] 0.014 | [3] -0.007 | quisinostat -0.021 | tipifarnib 0.016 | [4] 0.031 | [5] -0.005 | [6] -0.016 | [7] 0.013 | vorinostat -0.049 | silmitasertib -0.019 | [8] -0.035 | entospletinib 0.051

ARFGEF1 (UniProt Q9Y6D6)
inactive: nilotinib -0.018 | [1] 0.009 | dasatinib -0.021 | [2] 0.017 | [3] 0.022 | quisinostat -0.014 | tipifarnib -0.019 | [4] 0.023 | [5] 0.01 | [6] -0.02 | [7] 0.012 | vorinostat -0.105 | silmitasertib 0.022 | [8] 0.009 | entospletinib 0.02

ARMC8 (UniProt Q8IUR7)
inactive: nilotinib 0.002 | [1] 0.01 | dasatinib 0.013 | [2] -0.01 | [3] 0.006 | quisinostat -0.024 | tipifarnib 0.026 | [4] 0.021 | [5] -0.009 | [6] -0.011 | [7] 0.01 | vorinostat -0.143 | silmitasertib 0.017 | [8] 0.028 | entospletinib -0.012

ARF5 (UniProt P84085)
inactive: nilotinib 0.018 | [1] 0.032 | dasatinib 0.016 | [2] -0.005 | [3] -0.01 | quisinostat -0.018 | tipifarnib 0.006 | [4] -0.045 | [5] -0.024 | [6] 0.011 | [7] -0.004 | vorinostat -0.006 | silmitasertib -0.034 | [8] -0.095 | entospletinib 0.015

ARHGAP25 isoform 4 (UniProt P42331)
inactive: nilotinib -0.037 | [1] 0.039 | dasatinib -0.039 | [2] 0.022 | [3] 0.008 | quisinostat -0.115 | tipifarnib -0.016 | [4] 0.017 | [5] 0.028 | [6] -0.009 | [7] 0.027 | silmitasertib 0.011 | [8] -0.038 | entospletinib 0.009
active: vorinostat -0.377

APOBEC3C (UniProt Q9NRW3)
inactive: nilotinib 0.082 | [1] -0.014 | dasatinib -0.005 | [2] 0 | [3] 0.042 | quisinostat -0.144 | tipifarnib -0.024 | [4] -0.067 | [5] -0.001 | [6] 0.028 | [7] 0.055 | silmitasertib 0.043 | [8] -0.066 | entospletinib -0.007
active: vorinostat -0.278

APMAP (UniProt Q9HDC9)
inactive: nilotinib -0.007 | [1] 0.008 | dasatinib -0.01 | [2] -0.01 | [3] 0.093 | quisinostat -0.021 | tipifarnib -0.024 | [4] -0.014 | [5] -0.011 | [6] -0.003 | [7] 0.007 | vorinostat 0.084 | silmitasertib -0.001 | [8] -0.033 | entospletinib 0

ARID3B (UniProt Q8IVW6)
inactive: nilotinib 0.048 | [1] 0.044 | dasatinib -0.114 | [2] 0.008 | [3] 0.012 | quisinostat 0.008 | tipifarnib -0.009 | [4] -0.002 | [5] 0.028 | [6] 0.012 | [7] -0.021 | vorinostat -0.162 | silmitasertib 0.011 | [8] 0.002 | entospletinib -0.176

ARAP1 (UniProt Q96P48)
inactive: nilotinib -0.009 | [1] -0.029 | dasatinib -0.036 | [2] -0.032 | [3] 0.013 | quisinostat -0.072 | tipifarnib -0.041 | [4] 0.029 | [5] 0.006 | [6] 0.003 | [7] -0.04 | silmitasertib 0.017 | [8] -0.014 | entospletinib -0.012
active: vorinostat -0.379

APAF1 (UniProt O14727)
inactive: nilotinib -0.013 | [1] 0.116 | dasatinib -0.036 | [2] 0.025 | [3] 0.073 | quisinostat -0.091 | tipifarnib -0.026 | [4] 0.052 | [5] 0 | [6] 0.026 | [7] 0.021 | silmitasertib 0.032 | [8] 0.057 | entospletinib 0.032
active: vorinostat -0.292

APOO (UniProt Q9BUR5)
inactive: nilotinib -0.028 | [1] 0.01 | dasatinib -0.005 | [2] 0.01 | [3] 0.039 | quisinostat 0.11 | tipifarnib -0.064 | [4] -0.03 | [5] 0.022 | [6] 0.05 | [7] -0.035 | vorinostat 0.073 | silmitasertib 0.032 | [8] -0.027 | entospletinib 0.015
